Measurements reported in patent publication US10709720B2, “Human milk oligosaccharides for modulating inflammation” (priority 2010, dated 2020).
Some results were stated once for a whole list of compounds, not compound by compound. At least one compound was matched to its structure with a doubt left.

Tested on: H1N1 influenza virus
Format: cell-based
Details: HMO at 10 mg/mL; MDCK cells; FIG. 1

SMILES: CC(=O)N[C@H]1[C@H]([C@H](O)[C@H](O)CO)O[C@@](O[C@H]2[C@@H](O)[C@@H](CO)O[C@@H](O[C@H]3[C@H](O)[C@@H](O)C(O)O[C@@H]3CO)[C@@H]2O)(C(=O)O)C[C@@H]1O (stereo partly shown) [3′SL, 3′-sialyllactose]
- inhibition of virus infectivity: greater than 90%
